Results taken from PubChem BioAssay AID1487 (National Center for Advancing Translational Sciences (NCATS), 2009).
This is one part of the list. These are further read-outs of the screen, such as a control signal, another cell line or another target. No call is given for them. Most of these compounds were active or inconclusive in the main read-out, so they are no random draw. Words in brackets tell the shape of the fitted curve; partial curves, single points and poor fits give uncertain potencies.

Assay: qHTS Assay for Modulators of Lamin A Splicing
Details: HeLa LMNA splicing GFP/RFP minigene ratio, 48 h
Method in brief: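 S3 HeLa cells stably expressing lamin A-EGFP splicing minigene plus DsRed2, 600 cells/well, 48 h compound exposure at 37C. Laser-scanning cytometry; analysed as GFP (500-530 nm)/RFP (575-640 nm) total intensity ratio; 0.5% DMSO vehicle.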

[1] = measured here: RFP viability control channel
[2] = measured here: GFP splicing reporter channel

Row | Compound | AC50 [1] | AC50 [2]
1 | O=C(c1ccco1)N1CCN(C(=O)C2CCCc3c2[nH]c2ccc(Cl)cc32)CC1 (stereo not given) | 11.2 µM [rising, partial curve] | 
2 | c1ccn2c(SCc3ccc4c(c3)OCO4)nnc2c1 | 22.4 µM [rising, single point] | 35.5 µM [rising, single point]
3 | CC(=O)[C@@H]1[C@@H](C(=O)c2ccc(C)cc2)[C@]2(C(=O)Nc3ccccc32)[C@H]2C=Cc3cc(F)ccc3N12 | 25.1 µM [rising, single point] | 
4 | CCOC(=O)c1cc(-c2ccco2)nc2c1c(C)nn2CCC#N | 35.5 µM [rising, single point] | 
5 | COc1ccc(CCNC(=O)c2[nH]c(C)c(C(C)=O)c2C)cc1 | 14.1 µM [rising, partial curve, poor fit] | 
6 | CN1CCN(C(=S)C(=O)Nc2ccc(Br)cc2)CC1 | 1.41 µM [falling, partial curve] | 
7 | COc1ccccc1OCCNC(=O)Nc1cc(F)c(F)cc1Cl | 35.5 µM [falling, single point] | 
8 | O=C(/C(C=Nc1cccc(C(F)(F)F)c1)=C(/O)c1ccco1)C(F)(F)F | 22.4 µM [rising, partial curve, poor fit] | 
9 | COc1ccc(-c2nnc(SCC(=O)c3cccs3)n2-c2ccc(Cl)cc2)cc1 | 22.4 µM [rising, single point] | 12.6 µM [rising, single point]
10 | CCCCCOc1ccc(CSCCNC(=S)Nc2ccccc2)cc1 | 35.5 µM [rising, single point] | 
11 | COc1cc(NC(=O)c2cc(-c3ccco3)on2)c(OC)cc1Cl | 35.5 µM [rising, single point] | 35.5 µM [rising, single point]
12 | CCOc1ccc(NC(=O)COc2ccccc2)c([N+](=O)[O-])c1 |  | 1.26 µM [falling, single point]
13 | Cc1oc(-c2ccc(Cl)cc2)nc1CN1CCCC(C(=O)NCc2cccnc2)C1 (stereo not given) | 11.2 µM [rising, partial curve] | 
14 | CC1=C(C(=O)Nc2ccccn2)C(c2ccc3c(c2)OCO3)C2=C(CC(C)(C)CC2=O)N1 (stereo not given) |  | 1.41 µM [rising, partial curve]
15 | Cc1ccc(CSc2nc3ccncc3n2CC(=O)Nc2cc(C)cc(C)c2)cc1 |  | 0.141 µM [falling, full curve, poor fit]
16 | Cn1cccc1/C=C1\SC(=S)N(NC(=O)c2cccc(Cl)c2)C1=O | 25.1 µM [rising, single point] | 15.8 µM [rising, single point]
17 | O=c1[nH]nc(Cc2ccc(-c3cccc(Cl)c3)o2)c2ccccc12 | 20 µM [rising, single point] | 
18 | CCOC(=O)c1cn(Cc2cccc(Cl)c2)nn1 |  | 25.1 µM [rising, partial curve, poor fit]
19 | Cc1ccc(Cl)cc1N1CCN(C(=O)CN2C(=O)c3cccc4cccc2c34)CC1 | 17.8 µM [rising, partial curve, poor fit] | 

Row | Compound | AC50 [1] | AC50 [2]
20 | CCOc1cc(N2CCOCC2)c(OCC)cc1NC(=O)CSc1ncn[nH]1 |  | 0.708 µM [rising, full curve, poor fit]
21 | CCOc1ccc(OCc2ccc(C(=O)N3N=C(C(F)F)CC3(O)C(F)F)o2)cc1 (stereo not given) | 35.5 µM [rising, single point] | 
22 | O=C(COCc1cc(-c2ccc3c(c2)OCO3)on1)Nc1cccc(O)c1 |  | 5.62 µM [rising, full curve]
23 | Cc1cc(C)c(S(=O)(=O)ON2C(=O)c3ccccc3C2=O)cc1C | 35.5 µM [falling, single point] | 35.5 µM [falling, single point]
24 | CCOc1ccc2oc(C(=O)NC3CCN(Cc4ccccc4)CC3)c(C)c2c1 | 8.91 µM [falling, single point] | 11.2 µM [falling, single point]
25 | CCN(CC)C(=O)CN1C(=O)C2(OCC(C)(c3ccccc3)CO2)c2ccccc21 (stereo not given) | 15.8 µM [rising, single point] | 12.6 µM [rising, single point]
26 | CCN(CC)S(=O)(=O)c1ccc(OC)c(NC(=O)CSc2cc(C)ccc2C)c1 | 22.4 µM [rising, single point] | 
27 | Cc1ccc(C)c(N(CC(=O)NC2CCCC2)C(=O)c2oc(C(C)(C)C)cc2C)c1 | 12.6 µM [rising, single point] | 
28 | O=C(COC(=O)c1cn(-c2ccccc2)nc1-c1ccccc1)c1ccc([N+](=O)[O-])cc1 | 22.4 µM [rising, partial curve, poor fit] | 15.8 µM [rising, single point]
29 | Nc1cc(-c2nn[nH]n2)ccc1F | 17.8 µM [falling, partial curve] | 12.6 µM [falling, single point]
30 | CN1C(=O)CSc2ccc(NC(=O)N3CCN(c4ccccn4)CC3)cc21 | 15.8 µM [rising, single point] | 
31 | CCOc1ccc(OC(=O)c2sc3ncn(Cc4cccc(F)c4)c(=O)c3c2C)cc1 | 0.316 µM [falling, full curve, poor fit] | 0.1 µM [falling, full curve, poor fit]
32 | Cc1ccc(C(=O)NNC(=O)c2cccc(S(=O)(=O)N3CCN(c4ccccc4)CC3)c2)cc1 | 14.1 µM [rising, partial curve] | 12.6 µM [rising, partial curve]
33 | COc1cc2oc(=O)c3c(c2cc1OCC(=O)c1c(C)n(C)c2ccccc12)CCCC3 |  | 0.01 µM [rising, full curve, poor fit]
34 | Cc1ccc[n+](CC(=O)/C=C2\N(C)c3ccccc3C2(C)C)c1 | 3.16 µM [rising, full curve] | 2.24 µM [rising, full curve]
35 | CCn1c(=O)c(C(=O)CN2CCCc3ccccc32)c(N)n(Cc2ccccc2)c1=O |  | 12.6 µM [rising, single point]
36 | CCOCCCn1c(SCc2nc3ccccc3s2)nc2ccccc2c1=O | 3.98 µM [rising, single point] | 3.55 µM [rising, single point]
37 | CNC(=S)NCc1ccc2[nH]c(C)cc2c1 | 3.16 µM [falling, partial curve, poor fit] | 
38 | CCC(Sc1nc(C)cc(=O)[nH]1)C(=O)Nc1nnc(C)s1 (stereo not given) | 35.5 µM [rising, single point] | 

Row | Compound | AC50 [1] | AC50 [2]
39 | CCN1C2=NCCCN2c2cc(C)c(C)cc21 | 20 µM [rising, single point] | 
40 | COc1ccc(CN(Cc2cc3cccc(C)c3n3nnnc23)C(=O)N2CCOCC2)cc1 |  | 2.82 µM [falling, partial curve]
41 | Cc1cccc(C(=O)NC(=S)NNC(=O)COc2ccc(Cl)cc2)c1 | 0.0794 µM [falling, full curve, poor fit] | 
42 | COc1ccccc1-c1nnc2n1N=C(c1ccc(O)c(O)c1)CS2 | 0.501 µM [falling, full curve] | 0.447 µM [falling, full curve]
43 | COc1cc2c(cc1NS(=O)(=O)N1CCCCC1)oc1ccccc12 | 25.1 µM [rising, single point] | 12.6 µM [rising, single point]
44 | N#CCC(=O)NNC(=S)NC(=O)C(c1ccccc1)c1ccccc1 |  | 0.01 µM [falling, full curve, poor fit]
45 | Cc1ccc2nc(C(F)(F)F)c(C#N)c(N)c2c1 | 15.8 µM [falling, single point] | 25.1 µM [falling, single point]
46 | COc1ccccc1-c1noc(CCC(=O)Nc2cccc(C(F)(F)F)c2)n1 | 35.5 µM [rising, single point] | 35.5 µM [rising, single point]
47 | N#CC(C(=O)NC1CCCCC1)=C1CCCCCC1 | 1.78 µM [rising, partial curve, poor fit] | 
48 | CCOC(=O)c1[nH]c2c(c1C)C(=O)CC(c1ccco1)C2 (stereo not given) | 0.447 µM [rising, full curve] | 
49 | FC(F)(F)c1cccc(OCCN2CCN(Cc3ccccc3)CC2)c1 | 35.5 µM [rising, single point] | 
50 | COC(=O)c1[nH]c2ccc(C)cc2c1NC(=O)CN1CCN(c2ccc(F)cc2)CC1 | 5.01 µM [rising, full curve] | 5.01 µM [rising, full curve]
51 | CCCC(=O)N1c2ccccc2C(=C2SC(C(=O)OC)=C(C(=O)OC)S2)C(=S)C1(C)C | 14.1 µM [rising, single point] | 
52 | C=CCN(c1ccccc1)S(=O)(=O)c1cccc(C(=O)Nc2nc3ccccc3[nH]2)c1 | 20 µM [rising, partial curve] | 11.2 µM [rising, partial curve, poor fit]
53 | CC(=O)Oc1cccc2c1C(=O)c1c(OC(C)=O)cc(C(=O)O)cc1C2=O | 11.2 µM [rising, partial curve] | 
54 | CN(C)S(=O)(=O)c1ccc(Cl)c(NC(=O)COC(=O)C2CSC3(C)CCC(=O)N23)c1 (stereo not given) | 0.158 µM [rising, full curve, poor fit] | 
55 | CCOc1ccc2nc(COC(=O)c3ccncc3)c(C(=O)c3ccccc3)[n+]([O-])c2c1 |  | 1.78 µM [rising, partial curve, poor fit]
56 | CCCCc1ccc(NC(=S)Nc2ccc(Cl)c(S(=O)(=O)N(C)C)c2)cc1 | 35.5 µM [rising, single point] | 
